The record followed here is patent US20220305038A1.

Results are given in words; binding and its absence hold for the method and conditions named. Binding calls can cover weak binding; strength is not graded here.

The target in test [1] is V5-tagged wild-type HLA-DRB1 (human). Briefly: AAL lectin pulldown from WM793 cells, V5 immunoblot (FIG. 20C). Background: In western blotting, separated proteins are transferred to a membrane and probed.
The target is the same in test [2]. Briefly: V5 immunoprecipitation from WM793 cells, then blot probed with AAL (FIG. 19C).

B1: Aleuria aurantia (AAL) lectin (protein, UniProt P18891 2-313, looked up)
chain: PTEFLYTSKIAAISWAATGGRQQRVYFQDLNGKIREAQRGGDNPWTGGSSQNVIGEAKLFSPLAAVTWKSAQGIQIRVYCVNKDNILSEFVYDGSKWITGQLGSVGVKVGSNSKLAALQWGGSESAPPNIRVYYQKSNGSGSSIHEYVWSGKWTAGASFGSTVPGTGIGATAIGPGRLRIYYQATDNKIREHCWDSNSWYVGGFSASASAGVSIAAISWGSTPNIRVYWQKGREELYEAAYGGSWNTPGQIKDASRPTPSLPDTFIAANSSGNIDISVFFQASGVSLQQWQWISGKGWSIGAVVPTGTPAGW
Turning to B1, the binding entry in test [1] and in test [2] was “binds” throughout.
